From article PMC7703752, “Proteome-level assessment of origin, prevalence and function of leucine-aspartic acid (LD) motifs” (Bioinformatics, 2019)
Results are given in words; binding and its absence hold for the method and conditions named.

What was measured:
[1] = target: T1, RALGAPA2 LD motif peptide, FITC-Ahx-labelled (human); test: condition: GIT1 up to 630 μM (start of the MST dilution series); fluorescence polarisation + MST; 'additional DA and MST experiments' with GIT1: GIT1 serially diluted (MST from 630 μM, standard capillaries, 25 °C), FITC-Ahx peptide 0.1 μM; 20 mM HEPES pH 7.5, 150 mM NaCl, 2 mM EDTA, 2 mM DTT, Tween-20; both purified
T1 sequence (peptide, FITC-Ahx on the N-terminus): GDDVLDKLLENIGHT

[2] = target: T2, NCOA2 LD motif peptide, FITC-Ahx-labelled (human); test: as above
T2 sequence (peptide, FITC-Ahx on the N-terminus): SELDNLEEILDDLQNSQ

binding [1]: no binding
binding [2]: no binding
B1: rat GIT1 (647-770) (domain or fragment, UniProt Q9Z272 647-770)
chain: GLPSTEDVILKTEQVTKNIQELLRAAQEFKHDSFVPCSEKIHLAVTEMASLFPKRPALEPVRSSLRLLNASAYRLQSECRKTVPPEPGAPVDFQLLTQQVIQCAYDIAKAAKQLVTITTREKKQ
